Values quoted from earlier work in US20110293526A1, “COMPOSITIONS AND METHODS TO MODULATE HAIR GROWTH” (University of Southern California, priority 2008, published 2011).
For at least one compound, name, drawing or mass did not settle the structure.

Test system: BMP receptors, type I: ALK2, ALK3 and ALK6
Settings: reported (Hao et al. 2008; Yu et al. 2008); cited from earlier work

For `c1cc(-c2cnn3cc(-c4ccc(OCCN5CCCCC5)cc4)cnc23)ccn1` [Dorsomorphin], which “inhibition of BMP receptors / BMP-mediated SMAD1/5/8 phosphorylation” value is on record?
The value was “selectively inhibit the BMP receptors, type I: ALK2, ALK3 and ALK6”.
